Drawing on article PMC11425283, this text covers binding for nine molecules.

The chains behind the UniProt entries cited, without tags or fusion partners. Where a name states a change or a piece, a line headed by the entry shows the natural chain unless it says otherwise.
UniProt P09958: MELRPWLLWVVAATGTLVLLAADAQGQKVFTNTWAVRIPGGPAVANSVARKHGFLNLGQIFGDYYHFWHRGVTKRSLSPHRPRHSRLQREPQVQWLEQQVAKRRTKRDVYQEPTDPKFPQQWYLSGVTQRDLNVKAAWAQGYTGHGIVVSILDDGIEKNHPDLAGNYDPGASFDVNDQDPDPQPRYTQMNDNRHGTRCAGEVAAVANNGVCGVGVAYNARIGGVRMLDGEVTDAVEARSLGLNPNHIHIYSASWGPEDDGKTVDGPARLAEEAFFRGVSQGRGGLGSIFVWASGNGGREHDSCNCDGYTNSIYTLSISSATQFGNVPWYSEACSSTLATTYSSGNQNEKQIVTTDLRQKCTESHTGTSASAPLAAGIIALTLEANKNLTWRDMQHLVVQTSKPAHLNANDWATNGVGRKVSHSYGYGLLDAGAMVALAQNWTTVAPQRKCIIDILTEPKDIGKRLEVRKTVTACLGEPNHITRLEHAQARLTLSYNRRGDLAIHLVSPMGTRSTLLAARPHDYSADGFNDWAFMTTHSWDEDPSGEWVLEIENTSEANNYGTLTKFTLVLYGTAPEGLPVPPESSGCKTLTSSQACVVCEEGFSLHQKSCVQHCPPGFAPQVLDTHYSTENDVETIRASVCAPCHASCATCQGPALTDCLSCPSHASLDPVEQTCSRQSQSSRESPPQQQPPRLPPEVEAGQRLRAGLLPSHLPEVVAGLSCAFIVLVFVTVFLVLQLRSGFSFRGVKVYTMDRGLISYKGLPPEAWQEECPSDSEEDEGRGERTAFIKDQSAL
UniProt Q8NFA0: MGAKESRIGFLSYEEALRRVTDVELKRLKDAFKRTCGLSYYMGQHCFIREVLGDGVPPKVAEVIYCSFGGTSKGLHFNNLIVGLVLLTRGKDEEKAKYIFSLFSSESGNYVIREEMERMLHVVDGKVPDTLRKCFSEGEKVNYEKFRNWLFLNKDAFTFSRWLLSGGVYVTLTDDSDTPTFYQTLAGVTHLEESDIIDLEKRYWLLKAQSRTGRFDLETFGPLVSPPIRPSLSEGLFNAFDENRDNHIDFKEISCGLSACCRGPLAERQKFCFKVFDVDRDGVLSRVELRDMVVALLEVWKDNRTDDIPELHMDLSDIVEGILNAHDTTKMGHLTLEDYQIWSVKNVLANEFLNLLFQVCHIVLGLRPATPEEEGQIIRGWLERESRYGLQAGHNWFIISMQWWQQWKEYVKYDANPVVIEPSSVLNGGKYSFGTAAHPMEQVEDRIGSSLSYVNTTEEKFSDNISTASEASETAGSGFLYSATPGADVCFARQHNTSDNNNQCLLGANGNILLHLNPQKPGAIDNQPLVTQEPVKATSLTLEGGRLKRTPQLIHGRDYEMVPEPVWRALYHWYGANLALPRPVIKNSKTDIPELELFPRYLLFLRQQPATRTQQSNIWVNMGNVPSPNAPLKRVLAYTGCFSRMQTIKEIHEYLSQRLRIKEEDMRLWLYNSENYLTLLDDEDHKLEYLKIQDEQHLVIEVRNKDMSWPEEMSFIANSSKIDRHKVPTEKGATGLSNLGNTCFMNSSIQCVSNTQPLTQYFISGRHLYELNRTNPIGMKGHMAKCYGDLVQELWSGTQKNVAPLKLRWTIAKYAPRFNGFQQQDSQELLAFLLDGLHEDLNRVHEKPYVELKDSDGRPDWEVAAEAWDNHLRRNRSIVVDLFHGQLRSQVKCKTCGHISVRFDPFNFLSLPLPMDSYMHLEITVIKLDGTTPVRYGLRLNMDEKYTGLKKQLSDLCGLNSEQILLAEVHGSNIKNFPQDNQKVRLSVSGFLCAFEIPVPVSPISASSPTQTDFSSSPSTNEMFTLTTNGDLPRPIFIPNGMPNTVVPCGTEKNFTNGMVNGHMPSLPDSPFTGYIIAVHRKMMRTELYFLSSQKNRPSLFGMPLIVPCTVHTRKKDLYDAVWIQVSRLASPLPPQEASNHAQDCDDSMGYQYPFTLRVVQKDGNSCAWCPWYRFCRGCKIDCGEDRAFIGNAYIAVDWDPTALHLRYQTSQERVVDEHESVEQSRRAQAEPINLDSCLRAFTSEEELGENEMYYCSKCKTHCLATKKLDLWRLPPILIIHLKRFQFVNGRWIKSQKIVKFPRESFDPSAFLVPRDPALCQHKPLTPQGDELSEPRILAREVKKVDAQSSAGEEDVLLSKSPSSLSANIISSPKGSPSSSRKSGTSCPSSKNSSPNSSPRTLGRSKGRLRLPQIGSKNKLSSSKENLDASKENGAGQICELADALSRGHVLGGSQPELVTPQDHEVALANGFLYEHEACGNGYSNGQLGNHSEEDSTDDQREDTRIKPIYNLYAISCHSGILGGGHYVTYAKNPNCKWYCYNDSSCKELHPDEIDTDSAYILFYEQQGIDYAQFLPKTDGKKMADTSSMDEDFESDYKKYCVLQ

Sequences and labels used below:
B1: MARCHF2-HA-VN (enzyme, UniProt Q9P0N8 1-246)
chain: MTTGDCCHLPGSLCDCSGSPAFSKVVEATGLGPPQYVAQVTSRDGRLLSTVIRALDTPSDGPFCRICHEGANGECLLSPCGCTGTLGAVHKSCLEKWLSSSNTSYCELCHTEFAVEKRPRPLTEWLKDPGPRTEKRTLCCDMVCFLFITPLAAISGWLCLRGAQDHLRLHSQLEAVGLIALTIALFTIYVLWTLVSFRYHCQLYSEWRKTNQKVRLKIREADSPEGPQHSPLAAGLLKKVAEETPV
B2: MARCHF8-HA-VN (enzyme, UniProt Q5T0T0 1-291)
chain: MSMPLHQISAIPSQDAISARVYRSKTKEKEREEQNEKTLGHFMSHSSNISKAGSPPSASAPAPVSSFSRTSITPSSQDICRICHCEGDDESPLITPCHCTGSLHFVHQACLQQWIKSSDTRCCELCKYEFIMETKLKPLRKWEKLQMTSSERRKIMCSVTFHVIAITCVVWSLYVLIDRTAEEIKQGQATGILEWPFWTKLVVVAIGFTGGLLFMYVQCKVYVQLWKRLKAYNRVIYVQNCPETSKKNIFEKSPLTEPNFENKHGYGICHSDTNSSCCTEPEDTGAEIIHV
B3: MARCHF9-HA-VN (enzyme, UniProt Q86YJ5-1 1-346)
chain: MLKSRLRMFLNELKLLVLTGGGRPRAEPQPRGGRGGGCGWAPFAGCSTRDGDGDEEEYYGSEPRARGLAGDKEPRAGPLPPPAPPLPPPGALDALSLSSSLDSGLRTPQCRICFQGPEQGELLSPCRCDGSVRCTHQPCLIRWISERGSWSCELCYFKYQVLAISTKNPLQWQAISLTVIEKVQIAAIVLGSLFLVASISWLIWSSLSPSAKWQRQDLLFQICYGMYGFMDVVCIGLIIHEGSSVYRIFKRWQAVNQQWKVLNYDKTKDIGGDAGGGTAGKSGPRNSRTGPTSGATSRPPAAQRMRTLLPQRCGYTILHLLGQLRPPDARSSSHSGREVVMRVTTV
B4: MARCHF2-3×HA (enzyme, UniProt Q9P0N8 1-246)
chain: B1 chain
B5: 3×HA-MARCHF8 (enzyme, UniProt Q5T0T0 1-291)
chain: B2 chain
B6: MARCHF9-3×HA (enzyme, UniProt Q86YJ5-1 1-346)
chain: B3 chain

These are yes or no findings as the source states them, for the method shown. In cells and extracts the contact can be indirect. For part of these data: A result given as binding can be weak or reduced; the word gives no strength. For part of these data: Sequences can lack the tags named with a protein.

One test deals with furin-FLAG-VC (human) (UniProt P09958). Kind of test: split reporter; BiFC: MARCHF with a VN-tag and furin or 3K/A with a VC-tag co-expressed with TGOLN2-mCherry in HeLa cells; green signal by confocal microscopy.
As to B1, the binding result is listed as “binds”.

Consider B2, for which the binding entry is reported as “binds”.

For the molecule B3, the binding entry is on record as “binds”.

A further test has as its target USP32 with a 3×HA-tag (wild type) (human) (UniProt Q8NFA0). Kind of test: co-IP; HA-tagged MARCHF or USP32 (WT or mutant) co-expressed with furin (WT or mutant) in HEK293T; RIPA lysate; IP with anti-HA affinity gel overnight at 4 °C; WB.
For the molecule “furin ΔCT (FLAG-tagged) (from UniProt P09958) (domain or fragment)”, the binding result is “no binding”.

On to “furin ΔCD (FLAG-tagged) (from UniProt P09958) (enzyme)”, for which the binding entry is given as “binds”.

As for “furin ΔP (FLAG-tagged) (from UniProt P09958) (enzyme)”, the binding entry was “binds”.

In another test the target is furin ΔCT (FLAG-tagged) (human) (UniProt P09958). Kind of test: co-IP; FLAG-tagged furin (WT or mutant) co-expressed with the tagged partner in HEK293T; RIPA lysate; IP with anti-FLAG M2 magnetic beads overnight at 4 °C; WB.
B4: the binding result is on record as “no binding”.

Regarding B5, the binding entry is “no binding”.

On to B6, for which the binding result is “no binding”.

A further test has as its target furin ΔCD (FLAG-tagged) (human) (UniProt P09958). The description is as above.
On to B4, for which the binding entry is given as “binds”.

As for B5, the binding result is on record as “binds”.

Take B6: the binding result is given as “binds”.
